Test results reported in article PMC5346550.
No constants are given. Whether binding was seen depends on the method and setting. For some of these results: In cells and extracts the contact can be indirect. Some binding calls cover weakened binding; strength is not graded here. Where a sequence is shown, tags or fusion partners need not be part of it.

T1: Arabidopsis Ying Yang 1 (AtYY1) fused to the GAL4 DNA binding domain (AtYY1-BD) (Arabidopsis thaliana) (UniProt Q2V3L3)
T1 sequence: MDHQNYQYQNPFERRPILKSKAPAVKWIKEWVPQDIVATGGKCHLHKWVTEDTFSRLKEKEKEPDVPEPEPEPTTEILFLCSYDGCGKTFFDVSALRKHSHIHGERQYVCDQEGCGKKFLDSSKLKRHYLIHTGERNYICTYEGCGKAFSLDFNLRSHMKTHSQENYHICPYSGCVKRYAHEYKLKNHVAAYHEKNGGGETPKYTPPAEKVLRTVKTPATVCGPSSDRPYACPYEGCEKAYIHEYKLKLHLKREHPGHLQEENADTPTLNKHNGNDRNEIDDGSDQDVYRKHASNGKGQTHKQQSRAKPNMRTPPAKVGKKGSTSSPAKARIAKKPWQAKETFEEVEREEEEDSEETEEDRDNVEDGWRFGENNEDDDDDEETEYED

T2: AtYY1 fused to the N-terminal portion of yellow fluorescent protein (AtYY1-YFP^N) (Arabidopsis thaliana) (UniProt Q2V3L3)
T2 sequence: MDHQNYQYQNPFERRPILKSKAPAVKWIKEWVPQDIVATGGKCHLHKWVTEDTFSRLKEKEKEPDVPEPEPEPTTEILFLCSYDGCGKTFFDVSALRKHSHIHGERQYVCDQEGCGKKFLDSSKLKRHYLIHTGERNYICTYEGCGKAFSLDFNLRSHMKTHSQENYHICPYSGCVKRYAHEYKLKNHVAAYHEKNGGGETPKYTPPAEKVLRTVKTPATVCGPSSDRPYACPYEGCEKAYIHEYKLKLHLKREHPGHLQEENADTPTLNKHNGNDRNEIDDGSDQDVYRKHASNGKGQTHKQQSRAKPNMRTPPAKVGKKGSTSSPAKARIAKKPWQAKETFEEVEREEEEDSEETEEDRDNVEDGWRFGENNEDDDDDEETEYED

B1: CKII regulatory subunit CKB3 fused to the GAL4 activation domain (CKB3-AD) (protein, UniProt O81275 1-276)
chain: MYKERSGGGGGGSSRSEILGGAIDRKRINDALNKKLEKSSTSTTTSRVFSSKDKDPFSFTSTKTQLPDVESETDSEGSDVSGSEGDDTSWISWFCNLRGNDFFCEVDEDYIQDDFNLCGLSGQVPYYDYALDLILDVDASNSEMFTDEQHEMVESAAEMLYGLIHVRYILTTKGMAAMTEKYKNCDFGRCPRVFCCGQSCLPVGQSDIPRSSTVKIYCPKCEDISYPRSKFQGNIDGAYFGTTFPHLFLMTYGNLKPQKPTQSYVPKIFGFKVHKP
B2: CKII regulatory subunit CKB4 fused to the GAL4 activation domain (CKB4-AD) (protein, UniProt O80507 1-283)
chain: MYKDRSGGGIMGGGGSSRSEILGGAIDRKRINDALDKHLKKSSPSTSRVFTSKDKDSVPSTSTAKSQLHSRSPDVESDTDSEGSDVSGSEGDDTSWISWFCNLRGNEFFCEVDEDYIQDDFNLCGLSGQVPYYDYALDLILDVESSNGDMFTEEQHEMVESAAEMLYGLIHVRYILTTKGMAAMMEKYKNYDFGRCPRVFCCGQSCLPVGQSDIPRSSTVKIYCPKCEDIYYPRSKYQGNIDGAYFGTTFPHLFLMAYGNMKPQKPAQNYVPKIFGFKVHNKQ
B3: CKB3 fused to the C-terminal portion of yellow fluorescent protein (CKB3-YFP^C) (protein, UniProt O81275 1-276)
chain: MYKERSGGGGGGSSRSEILGGAIDRKRINDALNKKLEKSSTSTTTSRVFSSKDKDPFSFTSTKTQLPDVESETDSEGSDVSGSEGDDTSWISWFCNLRGNDFFCEVDEDYIQDDFNLCGLSGQVPYYDYALDLILDVDASNSEMFTDEQHEMVESAAEMLYGLIHVRYILTTKGMAAMTEKYKNCDFGRCPRVFCCGQSCLPVGQSDIPRSSTVKIYCPKCEDISYPRSKFQGNIDGAYFGTTFPHLFLMTYGNLKPQKPTQSYVPKIFGFKVHKP
B4: CKB4 fused to the C-terminal portion of yellow fluorescent protein (CKB4-YFP^C) (protein, UniProt O80507 1-283)
chain: MYKDRSGGGIMGGGGSSRSEILGGAIDRKRINDALDKHLKKSSPSTSRVFTSKDKDSVPSTSTAKSQLHSRSPDVESDTDSEGSDVSGSEGDDTSWISWFCNLRGNEFFCEVDEDYIQDDFNLCGLSGQVPYYDYALDLILDVESSNGDMFTEEQHEMVESAAEMLYGLIHVRYILTTKGMAAMMEKYKNYDFGRCPRVFCCGQSCLPVGQSDIPRSSTVKIYCPKCEDIYYPRSKYQGNIDGAYFGTTFPHLFLMAYGNMKPQKPAQNYVPKIFGFKVHNKQ

Experiments:
[1] = molecular target: T1, Arabidopsis Ying Yang 1 (AtYY1) fused to the GAL4 DNA binding domain (AtYY1-BD) (Arabidopsis thaliana); test: two-hybrid; yeast AH109 co-transformed with AtYY1-BD (pGBKT7) and AD fusions (pGADT7); growth on SD/-Trp/-Leu/-His and liquid beta-galactosidase assay with ONPG
[2] = molecular target: T2, AtYY1 fused to the N-terminal portion of yellow fluorescent protein (AtYY1-YFP^N) (Arabidopsis thaliana); test: split reporter; BiFC with YFP^N and YFP^C fusions in onion epidermal cells, particle bombardment, darkness at 22°C overnight, confocal microscopy

Binder	binding [1]	binding [2]
B1	binds	–
B2	binds weakly	–
B3	–	binds
B4	–	binds
